# Results as given in US20100008925A1.
# Protein sequences, listed by entry. Tags and fused reporters are not part of them. Residues count along the entry.
# UniProt P05107, residues 124-363: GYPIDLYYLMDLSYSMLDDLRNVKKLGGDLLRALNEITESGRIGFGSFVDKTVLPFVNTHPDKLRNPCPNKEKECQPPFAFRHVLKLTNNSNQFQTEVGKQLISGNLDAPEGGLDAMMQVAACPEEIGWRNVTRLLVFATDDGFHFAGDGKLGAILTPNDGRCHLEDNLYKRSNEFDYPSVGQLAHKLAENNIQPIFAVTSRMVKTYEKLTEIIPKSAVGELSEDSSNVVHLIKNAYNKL
# These are yes or no findings as the source states them, for the method shown. Some results given as binding are weak or reduced against the parent protein; the word gives no strength.
# Columns and labels:
# [1] = molecular target: purified recombinant CD18 βA domain (human) (UniProt P05107); assay: phage display, three rounds of panning
# [2] = molecular target: purified recombinant CD18 βA domain (human) (UniProt P05107); assay: phage display panning on the CD18 βA domain, followed by clone screening
binder,measurement,setting,value
"anti-CD18 βA scFv (scFv, V domains shown) VH: VKLQQSGTEVVKPGASVKLSCKASGYIFTSYDIDWVRQTPEQGLEWIGWIFPGEGSTEYNEKFKGRATLSVDKSSSTAYMELTRLTSEDSAVYFCARGDYTYRRYFDLWGQGTTVTVSS",binding,[1],binds
same,binding,[2],binds
